6 molecules from patent US20250136695A1 can be followed below.

By UniProt entry, the sequences of proteins in these tests, tags left out. Residues count along the entry.
UniProt Q9NZQ7, residues 19-290: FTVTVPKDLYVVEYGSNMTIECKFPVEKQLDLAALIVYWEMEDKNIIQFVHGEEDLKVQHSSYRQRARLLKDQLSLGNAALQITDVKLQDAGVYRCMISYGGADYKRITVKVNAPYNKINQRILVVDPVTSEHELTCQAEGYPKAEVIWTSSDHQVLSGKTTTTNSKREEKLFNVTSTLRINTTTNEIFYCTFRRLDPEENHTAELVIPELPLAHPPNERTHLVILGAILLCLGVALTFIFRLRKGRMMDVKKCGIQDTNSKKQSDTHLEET

The labels stand for the following.
B1: 17-A01 (VHH fused to human IgG1 Fc) (Fc fusion, not shown: a dimerising Fc or GST)
chain: MAAVQLVDSGGGLVQPGGSLRLSCAASGRTFGFYGWFRQAPGKEREFVAAITWGGSAISYEDSAKGRFTISRDNAKNTVYLQMNSLKPEDTAVYYCARSTRVTTNPREYDYWGQGTQVTVSS
B2: 17-G06 (VHH fused to human IgG1 Fc) (Fc fusion, not shown: a dimerising Fc or GST)
chain: B1 chain with D8E, E61D, T100M
B3: 17-C12 (VHH fused to human IgG1 Fc) (Fc fusion, not shown: a dimerising Fc or GST)
chain: MAQVKLEESGGGLVQPGGSLTLSCAASGRTFGFYGWFRQAPGKEREFVAGITWGGSVTSYADSVKGRFTISRDNAKNTVYLQMNSLKPENTAVYYCARSPRVTTTPREFDVWGQGTQVTVSS
B4: 23-G3 (VHH fused to human IgG1 Fc) (Fc fusion, not shown: a dimerising Fc or GST)
chain: MAAVQLVESGGGLVQAGGSLRLSCVASGRSFITYAVGWFRQAPGKEREFVASVNWSGAMTYYADAVNGRFTISRDNAKNTVYLQMNNLKLEDTAVYYCAATISAVTPTNGYQNWGQGTQVTVSS
B5: 17-A06 (VHH fused to human IgG1 Fc) (Fc fusion, not shown: a dimerising Fc or GST)
chain: B4 chain with A3Q, Q5K, V7E, V53I, A63T, A65S, T71A, A100S
B6: 29-H9 (VHH fused to human IgG1 Fc) (Fc fusion, not shown: a dimerising Fc or GST)
chain: RLQLVESGGGLVQAGGSLRLSCAASGFTFSTYAMSWYRGVPEKERELVAFISSDGGGTTYRDSVKGRFTISRDNGKNTVYLQMNSLKPEDTGVYYCARGLAQIWGQGTQVTVSS

Positions count from the first letter of the chain named. Results are given in words; binding and its absence hold for the method and conditions named. Some results given as binding are weak or reduced against the parent protein; the word gives no strength. Sequences can lack the tags named with a protein.

The first assay has as its target PDL1 expressed on recombinant CHO cells (CHO-K1/PDL1; aAPC CHO-PDL1) (UniProt Q9NZQ7). The assay can be described thus: flow cytometry, purified antibody in four 5-fold dilutions from 10 µg/mL on CHO-K1/PDL1 cells. On the technique in general: Flow cytometry measures light scatter and fluorescence of single cells or particles in a stream.
On to B1, for which the binding entry is “binds”.
Same read-out and setting: the value for B2 was “binds”; that for B3 was “binds”.
On the same count and under the same terms, with B4 the entry was “binds”.
The same measure, in the same setting: with B5 the entry was “binds”; with B6, “binds”.

The next assay shares this target. The assay can be described thus: flow cytometry, transient expression supernatant on CHO-K1/PDL1 cells, labelled anti-human IgG.
As for B1, the binding entry is on record as “binds”.
Same read-out and setting: the value for B2 was “binds”; that for B3 was “binds”.
On the same count and under the same terms, the value for B4 was “binds”; that for B5 was “binds”; that for B6 was “binds”.
